The subject of the assay is MX-1 breast xenograft, nude mice, tumor weight T/C. Description: NCI In Vivo Anticancer Drug Screen. Data for tumor model Human Mammary Carcinoma MX-1 Xenograft (intrarenal inoculation) in NU/NU Swiss (nude) mice. As to conditions: T/C endpoint: mean tumor weight change, higher T/C = larger tumour; for T/C: evaluated on day 11. A digest of the protocol: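 Mice carrying the implanted tumor receive either test agent or vehicle. Tumor size or survival is then recorded for both groups. Results are stated as the treated-to-control quotient.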

The mark [1] stands for this setting: dose: 1200.0 mg/kg/injection, schedule: Q04DX003 (sc), vehicle: saline with Tween-80.
Setting [2] is: dose: 200.0 mg/kg/injection, schedule: Q04DX003 (sc), vehicle: water.
Where [3] appears, read: dose: 120.0 mg/kg/injection, schedule: Q04DX003 (sc), vehicle: Klucel (hydroxypropylcellulose) (HPC).

This passage reports survivor count and T/C results from PubChem BioAssay AID296 (DTP/NCI, 2004).

The list shows only some results of the screen, not a fair sample: it is rich in T/C values a quarter to a half above the control, in often repeated tests (any T/C) and in doses without a T/C. Further doses and runs are listed elsewhere. T/C: endpoint of the treated group in % of that of the vehicle group. Schedule codes are those of the source, taken here to give the interval after Q, in days (D) or hours (H), and the number of doses after X. Some entries hold several experiments; the results are listed from low to high. Some T/C values are negative: the treated tumours shrank. Some T/C values carry the count of animals alive at the toxicity check (mostly the fifth day); where none is given, no animal had died by that day. Some entries give survivors of the animals treated and no T/C: the source holds a T/C of zero for them, seemingly a mark for toxic or unscored doses. Counts of survivors are from the toxicity check (mostly the fifth day) where no day follows; animals may have died later.

For the compound `C/C=C(\C)C(=O)OC1C(C)=C2C(C1OC(=O)CCCCC)C(C)(OC(C)=O)CC(OC(=O)CCC)C1(O)C2OC(=O)C1(C)O` (stereo not given), the survivor count was 0 of 6 on day 11 (dose: 4.0 mg/kg/injection, schedule: Q04DX003 (ip), vehicle: Klucel (hydroxypropylcellulose) (HPC)); 0 of 6 on day 11 (dose: 8.0 mg/kg/injection, schedule: Q04DX003 (ip), vehicle: Klucel (hydroxypropylcellulose) (HPC)); 0 of 6 on day 11 (dose: 16.0 mg/kg/injection, schedule: Q04DX003 (ip), vehicle: Klucel (hydroxypropylcellulose) (HPC)).

Turning to `C[Si](C)(CCl)N[Si](C)(C)CCl`, the survivor count by setting is: under setting [1], 3 of 6 on day 11; (dose: 2400.0 mg/kg/injection, schedule: Q04DX003 (sc), vehicle: saline with Tween-80) 0 of 6 on day 11.

As for `CC(=O)C1(O)Cc2c(O)c3c(c(O)c2C(OC2CC(N)C(O)C(C)O2)C1)C(=O)c1ccccc1C3=O` (stereo not given), the survivor count was 3 of 6 on day 11 (dose: 2.0 mg/kg/injection, schedule: Q04DX003 (sc), vehicle: water) and 0 of 6 on day 11 (dose: 4.0 mg/kg/injection, schedule: Q04DX003 (sc), vehicle: water).

Regarding `CC(=O)CC(C)=O.CC(=O)CC(C)=O.O=N[O-].O=N[O-].[Co]`, the survivor count is 3 of 6 on day 11 (dose: 300.0 mg/kg/injection, schedule: Q04DX003 (sc), vehicle: saline with Tween-80) and 0 of 6 on day 11 (dose: 600.0 mg/kg/injection, schedule: Q04DX003 (sc), vehicle: saline with Tween-80).

For the compound `C/C=C1\C[C@@H]2C(OC)Nc3cc(O)c(OC)cc3C(=O)N2C1` (stereo not given in full), the survivor count is, setting by setting: (dose: 8.0 mg/kg/injection, schedule: Q04DX003 (sc), vehicle: suspension in saline) 3 of 6 on day 11; (dose: 16.0 mg/kg/injection, schedule: Q04DX003 (sc), vehicle: saline) 0 of 6 on day 11; (dose: 16.0 mg/kg/injection, schedule: Q04DX003 (sc), vehicle: suspension in saline) 0 of 6 on day 11 and 2 of 6 on day 11.

For `CC1(O)C=CC(=O)C=C1`, the survivor count by setting is: (dose: 100.0 mg/kg/injection, schedule: Q04DX003 (ip), vehicle: water) 0 of 6 on day 11; (dose: 200.0 mg/kg/injection, schedule: Q04DX003 (ip), vehicle: water) 0 of 6 on day 11.

As for `O=C1c2c(O)cccc2-c2nn(CCNCCO)c3ccc(NCCNCCO)c1c23`, the survivor count (dose: 22.0 mg/kg/injection, schedule: Q04DX003 (ip), vehicle: water) is given as 2 of 6 on day 11 and the survivor count (dose: 44.0 mg/kg/injection, schedule: Q04DX003 (ip), vehicle: water) is reported as 0 of 6 on day 11.

With `COc1ccc(S(=O)(=O)N/N=C/C(=O)O)cc1`, the survivor count (dose: 200.0 mg/kg/injection, schedule: Q01DX010 (sc), vehicle: saline with Tween-80) was 1 of 6 on day 11 and 1 of 5 on day 11.

On to `CN(C)C1C(=O)C(C(=O)NP(=O)(NCCCO)N(CCCl)CCCl)=C(O)C2(O)C(=O)C3=C(O)c4c(O)cccc4C(C)(O)C3CC12` (stereo not given), for which the survivor count under setting [1] is given as 3 of 6 on day 11.

For `C1CC[N-]CC1.[Cl][Pt+2][Cl].[NH-]C1CC1`, the survivor count reads like this: (dose: 100.0 mg/kg/injection, schedule: Q04DX003 (sc), vehicle: Klucel (hydroxypropylcellulose) (HPC)) 2 of 6 on day 11; (dose: 200.0 mg/kg/injection, schedule: Q04DX003 (sc), vehicle: Klucel (hydroxypropylcellulose) (HPC)) 0 of 6 on day 11; under setting [2], 2 of 4 on day 11.

In the case of `C1CN1c1nc(N2CC2)nc(N2CC2)n1`, the survivor count was 0 of 3 on day 11 and 2 of 6 on day 11 (dose: 0.5 mg/kg/injection, schedule: Q01DX010 (sc), vehicle: saline); 0 of 3 on day 11 and 0 of 6 on day 11 (dose: 1.0 mg/kg/injection, schedule: Q01DX010 (sc), vehicle: saline).

Consider `NS(=O)(=O)OCCCCCCCOS(N)(=O)=O`, for which the survivor count reads like this: (dose: 300.0 mg/kg/injection, schedule: Q04DX003 (ip), vehicle: saline with Tween-80) 2 of 6 on day 11; (dose: 600.0 mg/kg/injection, schedule: Q04DX003 (ip), vehicle: saline with Tween-80) 0 of 5 on day 11; (dose: 1200.0 mg/kg/injection, schedule: Q04DX003 (ip), vehicle: saline with Tween-80) 0 of 6 on day 11.

For `Cc1nc(N)nc(N)c1-c1ccc(Cl)c(Cl)c1`, the T/C (dose: 1.88 mg/kg/injection, schedule: Q04DX003 (sc), vehicle: saline) was 142 % of control. Further, the survivor count (dose: 24.0 mg/kg/injection, schedule: Q04DX003 (sc), vehicle: saline) was 3 of 6 on day 11.

As for `O=C1C=C(C2OC(CO)C(O)C2O)C(=O)N1` (stereo not given), the survivor count by setting is: (dose: 25.0 mg/kg/injection, schedule: Q01DX010 (sc), vehicle: saline) 1 of 3 on day 11; (dose: 50.0 mg/kg/injection, schedule: Q01DX010 (sc), vehicle: saline) 0 of 3 on day 11.

Take `COc1ccc(C(N)=O)cc1N=NN(C)C`: the T/C (dose: 25.0 mg/kg/injection, schedule: Q01DX010 (sc), vehicle: Klucel (hydroxypropylcellulose) (HPC)) is 128 % of control. The survivor count is on record as 0 of 3 on day 11 (dose: 100.0 mg/kg/injection, schedule: Q01DX010 (sc), vehicle: Klucel (hydroxypropylcellulose) (HPC)) and 0 of 3 on day 11 (dose: 200.0 mg/kg/injection, schedule: Q01DX010 (sc), vehicle: Klucel (hydroxypropylcellulose) (HPC)).

`Cc1ccc(S(=O)(=O)NC(=S)S)cc1`: the T/C (dose: 100.0 mg/kg/injection, schedule: Q01DX010 (sc), vehicle: saline with Tween-80) was 135 % of control. Moreover, the survivor count (dose: 800.0 mg/kg/injection, schedule: Q01DX010 (sc), vehicle: saline with Tween-80) is recorded as 0 of 3 on day 11.

As to `C=C1c2cccc(O)c2C(O)=C2C(=O)[C@]3(O)C(O)=C(C(N)=O)C(=O)[C@@H](N(C)C)[C@@H]3[C@@H](O)[C@H]12`, the survivor count (dose: 600.0 mg/kg/injection, schedule: Q04DX003 (ip), vehicle: Klucel (hydroxypropylcellulose) (HPC)) is reported as 1 of 6 on day 11.

In the case of `Cc1[nH]c(=O)[nH]c(=O)c1N(CCF)CCCl`, the T/C is, setting by setting: (dose: 30.0 mg/kg/injection, schedule: Q04DX003 (sc), vehicle: Klucel (hydroxypropylcellulose) (HPC)) 1, 8, 9, 15, 44 % of control; (dose: 60.0 mg/kg/injection, schedule: Q04DX003 (sc), vehicle: Klucel (hydroxypropylcellulose) (HPC)) -85, -81, -71 [4 of 6 alive on day 11], 4, 5 % of control; under setting [3], -96 [4 of 6 alive on day 11] and -64 % of control [4 of 5 alive on day 11]. The survivor count under setting [3] is 0 of 6 on day 11 and 3 of 6 on day 11; the survivor count (dose: 160.0 mg/kg/injection, schedule: Q04DX003 (sc), vehicle: Klucel (hydroxypropylcellulose) (HPC)) is recorded as 0 of 6 on day 11, 1 of 6 on day 11, 2 of 6 on day 11; the survivor count (dose: 240.0 mg/kg/injection, schedule: Q04DX003 (sc), vehicle: Klucel (hydroxypropylcellulose) (HPC)) is 0 of 6 on day 11.

With `Nc1n[n+](-c2ccc(Cl)cc2)no1`, the survivor count is, setting by setting: (dose: 100.0 mg/kg/injection, schedule: Q04DX003 (sc), vehicle: water) 2 of 6 on day 11; under setting [2], 0 of 6 on day 11.

`CC1CC(C)CC(C)C(O)/C(C#N)=C/C=C/CC(C2CCCC2C(=O)O)OC(=O)CC(O)C(C)C1` (stereo not given): the survivor count is, setting by setting: (dose: 24.0 mg/kg/injection, schedule: Q04DX003 (sc), vehicle: Klucel (hydroxypropylcellulose) (HPC)) 2 of 6 on day 11; (dose: 48.0 mg/kg/injection, schedule: Q04DX003 (sc), vehicle: Klucel (hydroxypropylcellulose) (HPC)) 0 of 6 on day 11.

As for `COc1cccc2c1C(=O)c1c(O)c3c(c(O)c1C2=O)C[C@@](O)(/C(C)=N/NC(=O)c1ccccc1)C[C@@H]3OC1CC(N)C(O)C(C)O1` (stereo not given in full), the survivor count by setting is: (dose: 75.0 mg/kg/injection, schedule: Q04DX003 (sc), vehicle: water) 0 of 6 on day 11; (dose: 150.0 mg/kg/injection, schedule: Q04DX003 (sc), vehicle: water) 0 of 6 on day 11.

For `O=[N+]([O-])c1c(O)c(CNCCCO)cc(CNCCCO)c1O`, the survivor count (dose: 150.0 mg/kg/injection, schedule: Q04DX003 (ip), vehicle: suspension in saline) is on record as 1 of 6 on day 11 and the survivor count (dose: 300.0 mg/kg/injection, schedule: Q04DX003 (ip), vehicle: suspension in saline) is 0 of 6 on day 11.
